Data published in patent US20190194338A1.
Where a chain is given by its changes, count along the chain named. No constants are given. Whether binding was seen depends on the method and setting. Some binding calls cover weakened binding; strength is not graded here. Blank lines part the entries; values can stand above or below the binder they belong to.

Amino acid sequences for entries named in this document (tags omitted). A change or cut given only in a name is not applied to a line headed by its entry.
UniProt Q02223: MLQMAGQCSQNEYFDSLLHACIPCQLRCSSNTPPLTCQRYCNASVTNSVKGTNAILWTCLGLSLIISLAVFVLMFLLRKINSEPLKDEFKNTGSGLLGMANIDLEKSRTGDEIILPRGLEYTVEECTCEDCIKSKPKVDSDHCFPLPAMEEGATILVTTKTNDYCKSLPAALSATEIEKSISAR

Legend:
[1] = target: human BCMA expressed on cells (NCI-H929, U266, JJN3, 293:BCMA) (human) (UniProt Q02223); experiment: cell binding, NCI-H929 cells, 3-pt assay
[2] = target: human BCMA expressed on cells (NCI-H929, U266, JJN3, 293:BCMA) (human) (UniProt Q02223); experiment: cell binding, U266 cells, full range of concentrations

- binding [1]: binds
- binding [2]: binds
B2: hSG16.17 vH6 vK4 (antibody, V domains shown)
VH: QVQLVQSRAEVKKPGASVKLSCKASGYTFTDYYMHWVRQAPGQGLEWIGIINPNSGYTSYAQKFQGRVTMTADKSTNTAYVELSSLRSEDTAVYFCTRYMWERVTGFFDFWGQGTMVTVSS
VL: DIQMTQSPSSVSASVGDRVTITCLASEDISDDLAWYQQKPGKAPKVLVYTTSRLQSGVPSRFSGSGSGTDFTLTISSMQPEDFADYFCQQTYKFPPTFGGGTKVEIKR

- binding [1]: binds
- binding [2]: binds
B4: hSG16.17 vH6 vK5 (antibody, V domains shown)
VH: B2 VH
VL: B2 VL with L24R, P40S, R53S, M78L, D85T

The next lines start with the binder.

B1: hSG16.17 vH6 vK2 (antibody, V domains shown)
VH: B2 VH
VL: B2 VL with R53S, M78L, D85T
- binding [1]: binds
- binding [2]: binds

B3: hSG16.17 vH6 vK3 (antibody, V domains shown)
VH: B2 VH
VL: B2 VL with L24R, R53S, M78L, D85T
- binding [1]: binds
- binding [2]: binds
